Data taken from patent US12571801B2, “Tandem activity-based sensing and labeling strategy for reactive oxygen species imaging” (The Regents of the University of California, priority 2021, dated 2026).
At least one compound was matched to its structure with a doubt left.

Key:
[1] = test system: A431 cells; assay: Imaging of endogenous H2O2 in EGF-stimulated A431 cells; assay type: cell-based; details: inhibitor 5 μM pre-treatment 30 min
Experimental: (A) Confocal microscopy (top row) and overlaid brightfield (bottom row) images of A431 cells stained with PG1-FM (10 μM) and then treated with EGF (1 μg/mL) or vehicle control for 30 min, washed and imaged, or first pre-treated with NADPH oxidase inhibitor DPI (5 μM) or antioxidant ebselen (5 μM) for 30 min in HBSS solution before PG1-FM staining and EGF stimulation. (B) Quantification of experiments.

[2] = test system: RAW 264.7 macrophages; assay: Imaging and flow cytometry of endogenous H2O2 in PMA-stimulated RAW264.7 macrophages; assay type: cell-based, mouse; details: inhibitor pre-treatment 30 min in HBSS

O=c1c2ccccc2[se]n1-c1ccccc1 [ebselen, reference compound]
effect of inhibitor on H2O2-induced PG1-FM fluorescence in EGF-stimulated A431 cells [1]: inhibited H2O2-induced enhancements in PG1-FM fluorescence | effect of inhibitor on PMA-induced probe fluorescence increase in RAW 264.7 cells [2]: fluorescence increases are blocked
